Compound in the experiment: CC1Cc2ccccc2N1C(=O)C1CCCN(C1)C(=O)CCl (mixture of isomers) [TRIM25 ligand 11 (diastereomer mixture)]
The experiment is described as follows: probe-labelled cysteine peptide fold change vs DMSO (competition) (log2 fold change); higher = less target engagement (more negative = stronger competition). The note with it: THP-1, incubation time: 4 h.

Amino acid sequences for entries named in this document (tags omitted). A change or cut given only in a name is not applied to a line headed by its entry.
UniProt Q9C0D5: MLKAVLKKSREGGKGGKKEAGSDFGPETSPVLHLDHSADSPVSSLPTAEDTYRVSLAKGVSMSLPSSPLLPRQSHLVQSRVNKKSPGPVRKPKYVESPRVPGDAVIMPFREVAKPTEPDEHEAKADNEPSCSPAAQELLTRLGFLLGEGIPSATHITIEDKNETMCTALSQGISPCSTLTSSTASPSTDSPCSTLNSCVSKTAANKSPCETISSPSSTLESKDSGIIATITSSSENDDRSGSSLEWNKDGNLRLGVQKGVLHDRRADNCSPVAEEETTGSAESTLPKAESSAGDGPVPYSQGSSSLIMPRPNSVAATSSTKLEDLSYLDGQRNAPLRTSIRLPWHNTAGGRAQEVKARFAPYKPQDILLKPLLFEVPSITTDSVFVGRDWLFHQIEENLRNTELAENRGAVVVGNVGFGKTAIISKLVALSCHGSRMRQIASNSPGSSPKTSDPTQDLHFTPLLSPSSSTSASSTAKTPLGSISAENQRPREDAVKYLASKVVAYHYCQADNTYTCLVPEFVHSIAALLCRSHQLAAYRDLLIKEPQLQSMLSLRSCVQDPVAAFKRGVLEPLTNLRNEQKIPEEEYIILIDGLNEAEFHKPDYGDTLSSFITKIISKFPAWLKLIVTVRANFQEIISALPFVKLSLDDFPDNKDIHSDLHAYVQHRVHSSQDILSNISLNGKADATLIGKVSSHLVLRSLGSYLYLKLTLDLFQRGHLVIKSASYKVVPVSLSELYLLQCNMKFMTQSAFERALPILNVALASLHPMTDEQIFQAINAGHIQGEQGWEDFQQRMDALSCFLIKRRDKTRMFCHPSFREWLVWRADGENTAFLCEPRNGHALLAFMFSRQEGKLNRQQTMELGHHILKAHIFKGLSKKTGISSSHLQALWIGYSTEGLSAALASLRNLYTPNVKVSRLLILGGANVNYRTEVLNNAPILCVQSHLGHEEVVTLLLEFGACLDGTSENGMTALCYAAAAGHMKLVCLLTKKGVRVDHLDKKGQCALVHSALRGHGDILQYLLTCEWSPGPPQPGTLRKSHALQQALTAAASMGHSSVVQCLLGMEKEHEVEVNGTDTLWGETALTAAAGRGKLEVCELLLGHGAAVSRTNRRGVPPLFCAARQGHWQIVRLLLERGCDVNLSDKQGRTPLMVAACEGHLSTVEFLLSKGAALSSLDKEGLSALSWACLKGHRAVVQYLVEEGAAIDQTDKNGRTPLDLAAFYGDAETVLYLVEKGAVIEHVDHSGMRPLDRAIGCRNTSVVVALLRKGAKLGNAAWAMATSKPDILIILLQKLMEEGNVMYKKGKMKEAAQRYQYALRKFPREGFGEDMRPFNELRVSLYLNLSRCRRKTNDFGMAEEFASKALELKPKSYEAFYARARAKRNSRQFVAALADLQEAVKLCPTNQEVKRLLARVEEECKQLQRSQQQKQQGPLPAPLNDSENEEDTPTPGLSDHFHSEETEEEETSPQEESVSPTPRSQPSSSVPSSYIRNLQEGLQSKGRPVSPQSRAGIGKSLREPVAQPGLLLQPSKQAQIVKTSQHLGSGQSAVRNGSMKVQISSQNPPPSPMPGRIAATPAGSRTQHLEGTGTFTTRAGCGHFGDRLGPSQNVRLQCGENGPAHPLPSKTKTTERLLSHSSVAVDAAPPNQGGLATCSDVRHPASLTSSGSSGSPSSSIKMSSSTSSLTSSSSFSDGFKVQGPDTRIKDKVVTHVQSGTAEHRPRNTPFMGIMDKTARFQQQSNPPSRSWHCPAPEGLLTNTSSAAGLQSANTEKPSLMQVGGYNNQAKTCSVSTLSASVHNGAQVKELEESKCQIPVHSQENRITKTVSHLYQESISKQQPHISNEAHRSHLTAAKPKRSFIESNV
UniProt Q96EI5: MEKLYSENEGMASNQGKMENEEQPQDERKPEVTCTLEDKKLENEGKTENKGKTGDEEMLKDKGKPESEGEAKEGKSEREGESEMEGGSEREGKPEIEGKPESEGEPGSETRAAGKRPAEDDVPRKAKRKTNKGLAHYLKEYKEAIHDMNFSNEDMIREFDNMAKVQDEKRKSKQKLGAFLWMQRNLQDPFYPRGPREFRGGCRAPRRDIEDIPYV
UniProt P37802: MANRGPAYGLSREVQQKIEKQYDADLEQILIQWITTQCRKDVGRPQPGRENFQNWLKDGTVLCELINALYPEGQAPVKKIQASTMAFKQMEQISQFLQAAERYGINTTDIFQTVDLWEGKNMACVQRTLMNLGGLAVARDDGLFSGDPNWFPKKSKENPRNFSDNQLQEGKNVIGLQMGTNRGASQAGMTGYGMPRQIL
UniProt Q6P1N9: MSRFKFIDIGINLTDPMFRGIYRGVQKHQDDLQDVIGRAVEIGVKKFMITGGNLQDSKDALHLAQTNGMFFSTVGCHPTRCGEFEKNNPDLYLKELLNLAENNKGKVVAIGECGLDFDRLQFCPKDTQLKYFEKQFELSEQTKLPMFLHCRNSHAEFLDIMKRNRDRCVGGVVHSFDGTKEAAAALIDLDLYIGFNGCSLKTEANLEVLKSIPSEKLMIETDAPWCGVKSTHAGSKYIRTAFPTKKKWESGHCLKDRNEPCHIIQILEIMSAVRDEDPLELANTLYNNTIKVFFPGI
UniProt Q86VP1, whole entry, looked up: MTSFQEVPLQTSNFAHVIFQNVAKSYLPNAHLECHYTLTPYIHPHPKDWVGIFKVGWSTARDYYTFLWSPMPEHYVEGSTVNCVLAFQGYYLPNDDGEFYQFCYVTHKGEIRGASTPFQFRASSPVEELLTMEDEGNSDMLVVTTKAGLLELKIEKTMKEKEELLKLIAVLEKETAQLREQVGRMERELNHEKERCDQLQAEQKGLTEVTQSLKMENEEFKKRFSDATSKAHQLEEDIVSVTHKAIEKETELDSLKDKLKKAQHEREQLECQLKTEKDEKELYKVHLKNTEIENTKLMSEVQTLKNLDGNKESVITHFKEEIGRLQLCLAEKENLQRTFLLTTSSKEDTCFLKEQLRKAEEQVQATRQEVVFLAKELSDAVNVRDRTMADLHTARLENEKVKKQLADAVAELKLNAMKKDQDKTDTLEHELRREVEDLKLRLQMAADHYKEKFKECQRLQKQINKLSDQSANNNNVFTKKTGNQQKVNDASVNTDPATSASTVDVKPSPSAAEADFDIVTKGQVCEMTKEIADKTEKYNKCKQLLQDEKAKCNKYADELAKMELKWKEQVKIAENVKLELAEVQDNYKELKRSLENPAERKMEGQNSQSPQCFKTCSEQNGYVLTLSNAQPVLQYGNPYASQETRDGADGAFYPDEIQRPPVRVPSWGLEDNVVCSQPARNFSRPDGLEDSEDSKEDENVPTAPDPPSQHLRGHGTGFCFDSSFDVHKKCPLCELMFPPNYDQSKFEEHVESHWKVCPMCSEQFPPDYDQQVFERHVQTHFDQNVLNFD
UniProt Q9Y4P3: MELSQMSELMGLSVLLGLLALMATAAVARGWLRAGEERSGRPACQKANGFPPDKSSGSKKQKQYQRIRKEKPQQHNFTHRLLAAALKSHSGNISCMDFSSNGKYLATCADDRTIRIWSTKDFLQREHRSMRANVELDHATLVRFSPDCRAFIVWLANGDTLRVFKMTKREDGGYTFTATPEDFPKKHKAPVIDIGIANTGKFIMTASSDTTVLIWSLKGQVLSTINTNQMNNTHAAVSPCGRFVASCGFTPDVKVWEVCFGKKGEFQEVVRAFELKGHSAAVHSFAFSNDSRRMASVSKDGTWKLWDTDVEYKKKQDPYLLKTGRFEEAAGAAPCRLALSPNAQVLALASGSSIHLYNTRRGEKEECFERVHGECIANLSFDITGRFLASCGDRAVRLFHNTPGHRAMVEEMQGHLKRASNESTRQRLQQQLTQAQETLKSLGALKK
UniProt O60343: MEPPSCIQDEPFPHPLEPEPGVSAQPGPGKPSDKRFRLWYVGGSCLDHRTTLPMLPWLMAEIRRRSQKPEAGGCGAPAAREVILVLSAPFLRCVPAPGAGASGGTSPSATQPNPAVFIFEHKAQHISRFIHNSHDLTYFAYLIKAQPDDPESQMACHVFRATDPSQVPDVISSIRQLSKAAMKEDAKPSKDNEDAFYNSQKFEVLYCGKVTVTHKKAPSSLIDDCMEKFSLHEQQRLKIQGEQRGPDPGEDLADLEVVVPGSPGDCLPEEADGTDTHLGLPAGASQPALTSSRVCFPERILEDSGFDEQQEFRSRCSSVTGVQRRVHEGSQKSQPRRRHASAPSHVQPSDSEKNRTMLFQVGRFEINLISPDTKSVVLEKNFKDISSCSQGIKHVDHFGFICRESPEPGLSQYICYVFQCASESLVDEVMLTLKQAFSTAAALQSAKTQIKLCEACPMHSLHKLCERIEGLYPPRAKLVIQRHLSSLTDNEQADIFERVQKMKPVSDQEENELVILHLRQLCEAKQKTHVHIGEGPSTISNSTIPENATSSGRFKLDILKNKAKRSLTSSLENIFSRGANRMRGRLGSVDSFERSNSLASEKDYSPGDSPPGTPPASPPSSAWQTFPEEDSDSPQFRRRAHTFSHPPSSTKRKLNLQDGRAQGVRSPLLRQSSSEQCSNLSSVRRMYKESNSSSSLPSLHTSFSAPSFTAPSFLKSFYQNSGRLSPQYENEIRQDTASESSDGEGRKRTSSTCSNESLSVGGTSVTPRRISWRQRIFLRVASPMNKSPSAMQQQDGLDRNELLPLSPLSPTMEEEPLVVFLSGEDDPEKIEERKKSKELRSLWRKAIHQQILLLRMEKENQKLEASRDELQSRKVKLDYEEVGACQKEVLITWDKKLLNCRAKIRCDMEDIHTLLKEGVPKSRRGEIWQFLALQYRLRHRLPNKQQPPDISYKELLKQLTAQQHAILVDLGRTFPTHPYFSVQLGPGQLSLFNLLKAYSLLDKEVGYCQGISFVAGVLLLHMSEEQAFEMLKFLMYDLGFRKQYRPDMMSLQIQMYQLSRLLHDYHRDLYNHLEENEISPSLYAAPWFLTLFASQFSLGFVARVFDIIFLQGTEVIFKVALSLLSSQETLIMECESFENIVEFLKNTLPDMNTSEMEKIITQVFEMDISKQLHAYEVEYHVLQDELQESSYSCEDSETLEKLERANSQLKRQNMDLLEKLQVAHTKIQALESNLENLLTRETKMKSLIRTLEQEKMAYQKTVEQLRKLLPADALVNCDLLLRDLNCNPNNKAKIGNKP
UniProt Q03519, whole entry, looked up: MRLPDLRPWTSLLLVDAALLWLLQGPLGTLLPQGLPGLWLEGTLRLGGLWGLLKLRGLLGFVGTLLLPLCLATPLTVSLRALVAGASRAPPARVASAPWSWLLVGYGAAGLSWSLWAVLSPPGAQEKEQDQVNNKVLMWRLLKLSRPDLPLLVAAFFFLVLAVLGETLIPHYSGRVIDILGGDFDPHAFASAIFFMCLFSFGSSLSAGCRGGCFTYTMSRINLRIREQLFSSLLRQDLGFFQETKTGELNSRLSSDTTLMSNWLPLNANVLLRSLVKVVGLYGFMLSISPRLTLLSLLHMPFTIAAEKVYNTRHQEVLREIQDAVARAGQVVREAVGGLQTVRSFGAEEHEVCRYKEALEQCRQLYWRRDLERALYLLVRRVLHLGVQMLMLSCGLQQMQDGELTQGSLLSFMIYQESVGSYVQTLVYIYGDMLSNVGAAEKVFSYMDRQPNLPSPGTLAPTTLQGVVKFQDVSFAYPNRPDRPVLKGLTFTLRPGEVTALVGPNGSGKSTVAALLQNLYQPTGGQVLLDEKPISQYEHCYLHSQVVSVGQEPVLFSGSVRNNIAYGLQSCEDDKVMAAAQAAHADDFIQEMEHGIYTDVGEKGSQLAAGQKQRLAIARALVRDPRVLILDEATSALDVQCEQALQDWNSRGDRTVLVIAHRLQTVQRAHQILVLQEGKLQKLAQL
UniProt Q9UHD2: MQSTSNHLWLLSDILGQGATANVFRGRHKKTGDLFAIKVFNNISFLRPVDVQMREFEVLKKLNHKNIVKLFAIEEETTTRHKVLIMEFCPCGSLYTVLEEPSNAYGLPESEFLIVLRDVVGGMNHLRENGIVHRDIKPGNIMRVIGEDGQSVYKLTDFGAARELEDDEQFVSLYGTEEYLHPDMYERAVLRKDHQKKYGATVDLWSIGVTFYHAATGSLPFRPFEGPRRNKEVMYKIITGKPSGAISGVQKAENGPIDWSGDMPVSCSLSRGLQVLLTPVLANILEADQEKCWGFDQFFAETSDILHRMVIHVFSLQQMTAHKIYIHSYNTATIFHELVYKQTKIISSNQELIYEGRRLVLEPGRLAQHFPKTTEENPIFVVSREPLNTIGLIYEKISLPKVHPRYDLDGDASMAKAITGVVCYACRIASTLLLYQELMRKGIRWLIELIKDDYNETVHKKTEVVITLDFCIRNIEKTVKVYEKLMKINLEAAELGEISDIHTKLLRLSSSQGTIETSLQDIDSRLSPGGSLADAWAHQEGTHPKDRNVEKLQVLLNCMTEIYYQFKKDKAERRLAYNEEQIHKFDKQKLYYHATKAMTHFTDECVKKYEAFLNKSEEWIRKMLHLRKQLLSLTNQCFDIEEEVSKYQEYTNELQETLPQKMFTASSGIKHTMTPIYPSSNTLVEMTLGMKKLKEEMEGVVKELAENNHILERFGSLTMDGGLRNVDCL

This is one part of the list.
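Further: competitive chemoproteomic profiling in live THP-1 cells with an iodoacetamide desthiobiotin (IA-DTB) probe, comparing probe-labelled peptide intensities in compound-treated cells against DMSO-treated controls.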

Take “TBCD_Q9BTW9_899_SQPELIEAHTCER (UniProt Q9BTW9)”: the “probe-labelled cysteine peptide fold change” value reads like this: (10 µM) 0.15; (50 µM) 0.152.

Consider “TANC1_Q9C0D5_1023_GHGDILQYLLTCEWSPGPPQPGTLR (UniProt Q9C0D5)”, for which the “probe-labelled cysteine peptide fold change” value (10 µM) is 0.153 and the “probe-labelled cysteine peptide fold change” value (50 µM) was 0.0587.

Turning to “TARS_P26639_656_FMADIDLDPGCTLNKK (UniProt P26639)”, the “probe-labelled cysteine peptide fold change” value reads like this: (10 µM) -0.277; (50 µM) -0.337.

In the case of “TAF15_Q92804_379_NSCNQCNEPRPEDSR (UniProt Q92804)”, the “probe-labelled cysteine peptide fold change” value was -0.121 (10 µM) and -0.0853 (50 µM).

As to “TBC1D1_Q86TI0_390_APAQLCEGCPLQSLHK (UniProt Q86TI0)”, the “probe-labelled cysteine peptide fold change” value worked out at 0.253 (10 µM) and 0.00724 (50 µM).

Turning to “TACC1_O75410_219_AGNSCPELVPSR (UniProt O75410)”, the “probe-labelled cysteine peptide fold change” value (10 µM) is -0.0492 and the “probe-labelled cysteine peptide fold change” value (50 µM) was -0.0392.

For the target “TCEAL4_Q96EI5_34_MENEEQPQDERKPEVTCTLEDK (UniProt Q96EI5)”, the “probe-labelled cysteine peptide fold change” value by setting is: (10 µM) -0.333; (50 µM) -0.301.

Regarding “TAGLN2_P37802_124_NMACVQR (UniProt P37802)”, the “probe-labelled cysteine peptide fold change” value (10 µM) was -0.156 and the “probe-labelled cysteine peptide fold change” value (50 µM) was 0.0569.

Turning to “TATDN1_Q6P1N9_226_LMIETDAPWCGVK (UniProt Q6P1N9)”, the “probe-labelled cysteine peptide fold change” value (10 µM) was -0.0502 and the “probe-labelled cysteine peptide fold change” value (50 µM) was -0.086.

Regarding “TAX1BP1_Q86VP1_196_CDQLQAEQK (UniProt Q86VP1)”, the “probe-labelled cysteine peptide fold change” value was 0.0706 (10 µM) and -0.0507 (50 µM).

For “TBL3_Q12788_41+43_AQLDQTGQHLFCVCGTR (UniProt Q12788)”, the “probe-labelled cysteine peptide fold change” value by setting is: (10 µM) -0.0435; (50 µM) 0.0935.

As to “SYNE3_Q6ZMZ3_51_ICQLEPEGR (UniProt Q6ZMZ3)”, the “probe-labelled cysteine peptide fold change” value (10 µM) is -0.131 and the “probe-labelled cysteine peptide fold change” value (50 µM) was -0.073.

As to “TBL2_Q9Y4P3_247_FVASCGFTPDVK (UniProt Q9Y4P3)”, the “probe-labelled cysteine peptide fold change” value was -0.0978 (10 µM) and -0.0254 (50 µM).

As for “SYAP1_Q96A49_283_TQEDEEEISTSPGVSEFVSDAFDACNLNQEDLRK (UniProt Q96A49)”, the “probe-labelled cysteine peptide fold change” value (10 µM) came to 0.134 and the “probe-labelled cysteine peptide fold change” value (50 µM) is 0.0906.

For “TAOK2_Q9UL54_623_EQLQQCQAEEEAGLLRR (UniProt Q9UL54)”, the “probe-labelled cysteine peptide fold change” value by setting is: (10 µM) 0.037; (50 µM) -0.0688.

Regarding “TAF4_O00268_1022_KVDCPGPGSGAEGSGPGSVVPGSSGVGTPR (UniProt O00268)”, the “probe-labelled cysteine peptide fold change” value by setting is: (10 µM) -0.155; (50 µM) -0.148.

“TANC1_Q9C0D5_1003_KGQCALVHSALR (UniProt Q9C0D5)”: the “probe-labelled cysteine peptide fold change” value is, setting by setting: (10 µM) -0.00971; (50 µM) 0.0268.

As for “TBC1D4_O60343_885_LDYEEVGACQK (UniProt O60343)”, the “probe-labelled cysteine peptide fold change” value by setting is: (10 µM) 0.00284; (50 µM) -0.216.

Turning to “TAX1BP1_Q86VP1_328_LQLCLAEK (UniProt Q86VP1)”, the “probe-labelled cysteine peptide fold change” value by setting is: (10 µM) -0.0227; (50 µM) -0.0783.

Regarding “TBL3_Q12788_298_VWEAASGQCVYTQAQPPGPGQELTHCTLAHTAGVVLTATADHNLLLYEAR (UniProt Q12788)”, the “probe-labelled cysteine peptide fold change” value is 0.0769 (10 µM) and -0.123 (50 µM).

For “TAP2_Q03519_353_SFGAEEHEVCR (UniProt Q03519)”, the “probe-labelled cysteine peptide fold change” value (10 µM) turned out to be 0.0104 and the “probe-labelled cysteine peptide fold change” value (50 µM) was -0.114.

“TCEA1_P23193_291_SADEPMTTFVVCNECGNR (UniProt P23193)”: the “probe-labelled cysteine peptide fold change” value (10 µM) is 0.236 and the “probe-labelled cysteine peptide fold change” value (50 µM) stood at 0.0324.

As to “TBK1_Q9UHD2_605_AMTHFTDECVK (UniProt Q9UHD2)”, the “probe-labelled cysteine peptide fold change” value runs as follows: (10 µM) 0.0838; (50 µM) 0.345.

For the target “TBL2_Q9Y4P3_259_VWEVCFGK (UniProt Q9Y4P3)”, the “probe-labelled cysteine peptide fold change” value (10 µM) came to 0.124 and the “probe-labelled cysteine peptide fold change” value (50 µM) is 0.152.

For “TBC1D23_Q9NUY8_86_DCLQFIDQLSVPEEK (UniProt Q9NUY8)”, the “probe-labelled cysteine peptide fold change” value turned out to be 0.215 (10 µM) and 0.139 (50 µM).

On to “TATDN1_Q6P1N9_150_LPMFLHCR (UniProt Q6P1N9)”, for which the “probe-labelled cysteine peptide fold change” value is, setting by setting: (10 µM) -0.11; (50 µM) -0.119.

Take “TBK1_Q9UHD2_267_AENGPIDWSGDMPVSCSLSR (UniProt Q9UHD2)”: the “probe-labelled cysteine peptide fold change” value was -0.4 (10 µM) and -0.461 (50 µM).

Consider “TACC3_Q9Y6A5_662_CEELHGK (UniProt Q9Y6A5)”, for which the “probe-labelled cysteine peptide fold change” value is, setting by setting: (10 µM) -0.00897; (50 µM) -0.0764.

“TBC1D4_O60343_402_HVDHFGFICR (UniProt O60343)”: the “probe-labelled cysteine peptide fold change” value is -0.0405 (10 µM) and 0.0174 (50 µM).

On to “TBL3_Q12788_696_DPEACEK (UniProt Q12788)”, for which the “probe-labelled cysteine peptide fold change” value is, setting by setting: (10 µM) -0.0604; (50 µM) -0.00906.
